Data as given in PubChem BioAssay AID1508597 (Cure First, 2020).
This is a random part of the about 2,100 reagents, in one setting of the screen. 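Calls flag viability under 80% in either arm, not effects specific to rucaparib; the reference for percent is not stated.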 A reagent listed more than once was tested more than once; the source does not tell the runs apart. Not stated in the record: the 100% reference.

Screen: 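Knock-downs altering ovarian cancer cell survival with or without PARP inhibitor rucaparib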 (primary screen)
System: human ovarian carcinoma lines grown from tumours: OCI-P5x (papillary serous) and OCI-C5x (clear cell)
Reagents: siRNA pool against human genes, 1.25 pmol siRNA per well
Duration: 72 h or 96 h, depending on the cell culture
Challenge: rucaparib 20 µM (about IC30) or vehicle, present until read-out
Rucaparib or vehicle: Vehicle
Cell line: OCI-C5x (clear cell)
Measurement: 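Luminescent ATP-based viability assay read 72 or 96 h after transfection, depending on culture, given as normalised percent viability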
Reading the numbers: viability, normalised: higher = more viable cells remaining
Hit rule: 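a well counts as a hit if its normalised viability is under 80 percent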
Calls: active = viability under 80%; inactive = viability 80% or more

TNNI3K, technical replicate 1 → viability, normalised (%) = 57; Call = active
TNNI3K, technical replicate 2 → viability, normalised (%) = 60.7; Call = active
TNNI3K, technical replicate 3 → viability, normalised (%) = 44.8; Call = active
SLC1A4, technical replicate 1 → viability, normalised (%) = 60.8; Call = active
SLC1A4, technical replicate 2 → viability, normalised (%) = 65; Call = active
SLC1A4, technical replicate 3 → viability, normalised (%) = 49.1; Call = active
RECQL4, technical replicate 1 → viability, normalised (%) = 55.5; Call = active
RECQL4, technical replicate 1 → viability, normalised (%) = 77.6; Call = active
RECQL4, technical replicate 1 → viability, normalised (%) = 59; Call = active
RECQL4, technical replicate 2 → viability, normalised (%) = 81.1; Call = inactive
RECQL4, technical replicate 2 → viability, normalised (%) = 36; Call = active
RECQL4, technical replicate 2 → viability, normalised (%) = 76.1; Call = active
RECQL4, technical replicate 3 → viability, normalised (%) = 80.4; Call = inactive
RECQL4, technical replicate 3 → viability, normalised (%) = 64.6; Call = active
RECQL4, technical replicate 3 → viability, normalised (%) = 40.7; Call = active
RIPK1, technical replicate 1 → viability, normalised (%) = 67.7; Call = active
RIPK1, technical replicate 2 → viability, normalised (%) = 41.7; Call = active
RIPK1, technical replicate 3 → viability, normalised (%) = 38.1; Call = active
HNF1A, technical replicate 1 → viability, normalised (%) = 34.3; Call = active
HNF1A, technical replicate 2 → viability, normalised (%) = 40.2; Call = active
HNF1A, technical replicate 3 → viability, normalised (%) = 41; Call = active
CHD9, technical replicate 1 → viability, normalised (%) = 60.7; Call = active
CHD9, technical replicate 2 → viability, normalised (%) = 58; Call = active
CHD9, technical replicate 3 → viability, normalised (%) = 63.4; Call = active
PET117, technical replicate 1 → viability, normalised (%) = 38.8; Call = active
PET117, technical replicate 2 → viability, normalised (%) = 55.4; Call = active
PET117, technical replicate 3 → viability, normalised (%) = 39.7; Call = active
NANOG, technical replicate 1 → viability, normalised (%) = 49.6; Call = active
NANOG, technical replicate 2 → viability, normalised (%) = 38.4; Call = active
NANOG, technical replicate 3 → viability, normalised (%) = 44.4; Call = active
KAT8, technical replicate 1 → viability, normalised (%) = 44.3; Call = active
KAT8, technical replicate 2 → viability, normalised (%) = 23.3; Call = active
KAT8, technical replicate 3 → viability, normalised (%) = 32.1; Call = active
PCDHB5, technical replicate 1 → viability, normalised (%) = 36.8; Call = active
PCDHB5, technical replicate 2 → viability, normalised (%) = 40.4; Call = active
PCDHB5, technical replicate 3 → viability, normalised (%) = 26.5; Call = active
UNC93B1, technical replicate 1 → viability, normalised (%) = 62.4; Call = active
UNC93B1, technical replicate 2 → viability, normalised (%) = 66.3; Call = active
UNC93B1, technical replicate 3 → viability, normalised (%) = 38.2; Call = active
BPTF, technical replicate 1 → viability, normalised (%) = 18.5; Call = active
BPTF, technical replicate 2 → viability, normalised (%) = 24.7; Call = active
BPTF, technical replicate 3 → viability, normalised (%) = 22.4; Call = active

Part of the list above in another layout:
CHD9, technical replicate 2
- viability, normalised (%): 58
- Call: active

CHD9, technical replicate 3
- viability, normalised (%): 63.4
- Call: active

PET117, technical replicate 1
- viability, normalised (%): 38.8
- Call: active
